# The other results are listed elsewhere or left out.
# By UniProt entry, the sequences of proteins in these tests, tags left out. Where a name states a change or a piece, a line headed by the entry shows the natural chain unless it says otherwise.
# UniProt O60725, whole entry, looked up: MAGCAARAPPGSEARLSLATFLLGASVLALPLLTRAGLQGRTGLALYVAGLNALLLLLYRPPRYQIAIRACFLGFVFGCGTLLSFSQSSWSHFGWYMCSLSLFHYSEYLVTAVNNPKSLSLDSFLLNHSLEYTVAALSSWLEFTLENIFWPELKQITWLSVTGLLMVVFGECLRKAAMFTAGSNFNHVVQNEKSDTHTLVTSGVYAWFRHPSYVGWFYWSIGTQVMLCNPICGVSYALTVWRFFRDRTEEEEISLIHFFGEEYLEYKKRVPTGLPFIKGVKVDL
# UniProt Q86YM7: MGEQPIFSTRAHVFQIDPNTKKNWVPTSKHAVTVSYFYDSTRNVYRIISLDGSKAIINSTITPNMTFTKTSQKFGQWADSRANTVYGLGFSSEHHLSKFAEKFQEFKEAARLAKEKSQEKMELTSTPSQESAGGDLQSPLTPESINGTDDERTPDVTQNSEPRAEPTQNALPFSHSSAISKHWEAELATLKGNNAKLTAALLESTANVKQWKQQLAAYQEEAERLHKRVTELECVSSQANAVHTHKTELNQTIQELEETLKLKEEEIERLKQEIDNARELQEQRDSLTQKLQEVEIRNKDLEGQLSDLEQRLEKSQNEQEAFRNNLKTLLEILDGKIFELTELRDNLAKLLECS
# UniProt Q9UJC3, whole entry, looked up: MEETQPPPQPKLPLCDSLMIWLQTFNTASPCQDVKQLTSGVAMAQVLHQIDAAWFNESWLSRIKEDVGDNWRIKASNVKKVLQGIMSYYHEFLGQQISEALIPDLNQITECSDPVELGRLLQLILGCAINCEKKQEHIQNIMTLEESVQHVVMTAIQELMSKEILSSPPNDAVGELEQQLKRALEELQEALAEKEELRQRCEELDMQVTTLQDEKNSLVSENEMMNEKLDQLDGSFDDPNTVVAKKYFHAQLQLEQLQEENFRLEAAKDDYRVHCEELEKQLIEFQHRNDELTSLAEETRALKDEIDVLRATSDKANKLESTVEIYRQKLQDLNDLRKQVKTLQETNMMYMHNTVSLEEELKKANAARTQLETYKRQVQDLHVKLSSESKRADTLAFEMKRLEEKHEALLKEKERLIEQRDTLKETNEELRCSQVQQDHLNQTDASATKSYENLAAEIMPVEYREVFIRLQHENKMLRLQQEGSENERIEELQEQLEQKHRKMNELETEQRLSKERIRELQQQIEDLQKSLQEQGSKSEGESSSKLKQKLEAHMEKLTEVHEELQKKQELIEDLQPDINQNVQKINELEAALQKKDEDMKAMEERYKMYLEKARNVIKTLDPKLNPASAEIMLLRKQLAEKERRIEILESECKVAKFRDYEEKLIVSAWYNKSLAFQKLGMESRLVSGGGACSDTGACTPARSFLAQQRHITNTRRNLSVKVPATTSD
# UniProt P05362: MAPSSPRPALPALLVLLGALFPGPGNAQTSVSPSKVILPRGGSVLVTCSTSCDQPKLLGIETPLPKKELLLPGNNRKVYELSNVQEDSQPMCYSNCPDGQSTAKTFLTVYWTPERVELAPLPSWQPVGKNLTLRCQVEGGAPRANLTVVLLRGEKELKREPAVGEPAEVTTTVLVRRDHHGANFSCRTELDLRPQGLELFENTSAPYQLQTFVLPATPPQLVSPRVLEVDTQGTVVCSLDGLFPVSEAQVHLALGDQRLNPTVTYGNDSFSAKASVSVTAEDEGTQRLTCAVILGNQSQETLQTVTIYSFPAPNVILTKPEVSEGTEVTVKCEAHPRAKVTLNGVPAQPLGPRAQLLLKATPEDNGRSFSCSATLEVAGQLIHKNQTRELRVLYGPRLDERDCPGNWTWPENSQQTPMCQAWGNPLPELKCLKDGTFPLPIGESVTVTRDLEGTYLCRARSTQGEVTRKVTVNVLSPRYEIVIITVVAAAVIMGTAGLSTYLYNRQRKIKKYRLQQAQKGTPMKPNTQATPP
# Legend:
# Assay in all cases: log2 fold change, soluble protein after heating vs DMSO (PISA); higher = thermal stabilisation; K562 cells, 10 uM, 30 min; active = over 0.2 and 3.5 SD of the protein, either way, in both replicates (recomputed)
# [1] = compound: CC[C@@H]1C(=O)N(C)c2cnc(Nc3ccc(C(=O)NC4CCN(C)CC4)cc3OC)nc2N1C1CCCC1
# In short: (§1)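 Thermal stability values are relative to control samples and come from duplicates. They are expressed as log2 fold changes. For measurement, K562 cells (2×10^6 cells/mL) received 10 μM compound for 30 min, and aliquots were heated for 3 min over 48°C-58°C, pooled, and extracted at 4°C in PBS with 0.5% NP-40. Soluble protein, the supernatant after 21,000xg for 90 min, was quantified by TMTpro 16plex LC-MS/MS with equalised channel sums.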
# [2] = compound: CC[C@H](C)N1C=C(C2=C(C=C(C=C21)C3=CN=C(C=C3)N4CCNCC4)C(=O)NCC5=C(C=C(NC5=O)C)C)C
# In short: as §1
# epoxomicin = compound: CC[C@H](C)[C@@H](C(=O)N[C@@H]([C@@H](C)O)C(=O)N[C@@H](CC(C)C)C(=O)[C@]1(CO1)C)NC(=O)[C@H]([C@@H](C)CC)N(C)C(=O)C [epoxomicin]
# In short: as §1
# [3] = compound: CCn1c(C(=O)N(C2CC2)C2CC2)cc2c3c(ncn3C)c(Nc3cc(C)n(C)n3)nc21
# In short: as §1
# [4] = compound: CCn1cc(-c2ccnc3[nH]c(-c4cccc(CN(C)C)c4)cc23)c(-c2ccc(NC(=O)N(C)C)cc2)n1
# In short: as §1
# [5] = compound: CN(C)CC(=O)Nc1ccc2[nH]c(=O)c3ccccc3c2c1
# In short: as §1
# rosiglitazone = compound: CN(CCOC1=CC=C(C=C1)C[C@H]2C(=O)NC(=O)S2)C3=CC=CC=N3 (racemic) [rosiglitazone]
# In short: as §1
# [6] = compound: CN1C2=C(C3=C1C(=O)N(N=C3)CC4=CC(=CC=C4)N)SC(=C2)S(=O)C
# In short: as §1
# [7] = compound: CN1CCC(CNc2ccc3ncc(-c4cccc(OC(F)(F)F)c4)n3n2)CC1
# In short: as §1
# saracatinib = compound: CN1CCN(CCOc2cc(OC3CCOCC3)c3c(Nc4c(Cl)ccc5c4OCO5)ncnc3c2)CC1 [saracatinib]
# In short: as §1
# alvocidib = compound: CN1CC[C@H](c2c(O)cc(O)c3c(=O)cc(-c4ccccc4Cl)oc23)[C@H](O)C1 [alvocidib]
# In short: as §1
# Tubastatin A = compound: CN1CCc2c(c3ccccc3n2Cc2ccc(C(=O)NO)cc2)C1 [Tubastatin A]
# In short: as §1
# [8] = compound: CNC(=O)C1=CC=CC=C1NC2=NC(=NC=C2Cl)NC3=C(C=C(C=C3)N4CCOCC4)OC
# In short: as §1
# defactinib = compound: CNC(=O)c1ccc(Nc2ncc(C(F)(F)F)c(NCc3nccnc3N(C)S(C)(=O)=O)n2)cc1 [defactinib]
# In short: as §1
# rucaparib = compound: CNCc1ccc(-c2[nH]c3cc(F)cc4c3c2CCNC4=O)cc1 [rucaparib]
# In short: as §1
# [9] = compound: CNc1nc(-c2ccc3c(N)n[nH]c3c2)cc(N2C[C@@H](C(=O)NC3CCCCC3)CC[C@H]2C)n1
# In short: as §1
# encorafenib = compound: COC(=O)N[C@@H](C)CNc1nccc(-c2cn(C(C)C)nc2-c2cc(Cl)cc(NS(C)(=O)=O)c2F)n1 [encorafenib]
# In short: as §1
# [10] = compound: COC(=O)[C@H](CCSC)NC(=O)C1=C(C=C(C=C1)NC[C@H](CS)N)C2=CC=CC=C2
# In short: as §1
# volasertib = compound: CC[C@@H]1C(=O)N(C)c2cnc(Nc3ccc(C(=O)N[C@H]4CC[C@H](N5CCN(CC6CC6)CC5)CC4)cc3OC)nc2N1C(C)C [volasertib]
# In short: as §1
# sotrastaurin = compound: CN1CCN(c2nc(C3=C(c4c[nH]c5ccccc45)C(=O)NC3=O)c3ccccc3n2)CC1 [sotrastaurin]
# In short: as §1
Target,log2 fold change [1],log2 fold change [2],log2 fold change (epoxomicin),log2 fold change [3],log2 fold change [4],log2 fold change [5],log2 fold change (rosiglitazone),log2 fold change [6],log2 fold change [7],log2 fold change (saracatinib),log2 fold change (alvocidib),log2 fold change (Tubastatin A),log2 fold change [8],log2 fold change (defactinib),log2 fold change (rucaparib),log2 fold change [9],log2 fold change (encorafenib),log2 fold change [10],log2 fold change (volasertib),log2 fold change (sotrastaurin)
HIST2H2AA3 (UniProt Q6FI13),inactive: -0.102,inactive: 0.007,inactive: 0.153,inactive: 0.096,inactive: 0.193,inactive: -0.338,inactive: -0.23,inactive: 0.073,inactive: 0.073,inactive: -0.051,inactive: 0.198,inactive: -0.03,inactive: -0.056,inactive: 0.569,inactive: 0.186,inactive: 0.065,inactive: -0.341,inactive: 0.131,–,–
ICMT (UniProt O60725),inactive: 0.202,inactive: -0.027,inactive: -0.029,–,–,inactive: 0.061,–,inactive: -0.051,–,inactive: -0.105,–,inactive: -0.065,inactive: 0.061,inactive: -0.034,inactive: 0.037,inactive: 0.235,inactive: -0.144,inactive: 0.062,inactive: 0.138,inactive: 0.025
HOMER1 (UniProt Q86YM7),inactive: -0.018,inactive: -0.099,inactive: 0.006,–,inactive: -0.025,inactive: 0.018,–,inactive: -0.018,inactive: 0.033,inactive: 0.032,–,inactive: -0.084,inactive: 0.021,inactive: 0.015,inactive: 0.021,inactive: 0.007,inactive: 0.04,inactive: -0.047,inactive: 0.024,inactive: 0.045
HOOK1 (UniProt Q9UJC3),inactive: 0.002,–,inactive: -0.022,–,–,inactive: -0.071,–,inactive: 0.135,–,inactive: -0.048,–,–,–,inactive: -0.033,inactive: -0.028,inactive: -0.045,inactive: 0.054,inactive: 0.045,inactive: -0.299,–
ICAM1 (UniProt P05362),inactive: 0.155,inactive: -0.028,inactive: 0.008,–,inactive: 0.012,inactive: -0.039,–,inactive: -0.073,active: 0.223,inactive: 0.035,–,inactive: -0.03,inactive: -0.073,inactive: -0.026,inactive: 0.049,inactive: 0.099,inactive: -0.004,inactive: 0.043,inactive: 0.078,inactive: 0.07

# From the supplement of paper PMC10849652
